Assay results as given in article PMC3937224, “Convergence of Light and ABA Signaling on the ABI5 Promoter” (PLoS Genetics, 2014).
The exact form of at least one protein or probe is not confirmed. For some assays here: Negatives hold for the conditions tested. For some assays here: Weaker means in comparison with the reference protein, sequence or condition of that experiment. For some assays here: Where a protein sequence is shown, tags need not be part of it.

Tests used:
GST = experiment: EMSA; details: 0.5 ug protein; 10 mM Tris-HCl (pH not stated), 150 mM KCl, 1 mM DTT, 50 ng/ml poly(dI-dC), 2.5% glycerol, 0.05% NP-40, 0.5 ug/ml BSA; recombinant protein; label: 5' biotin
[1] = target: T1, GST-HY5 (Arabidopsis thaliana) (UniProt O24646); experiment: EMSA; details: increasing 6xHis-BBX21 (lanes 2 to 6) decreases HY5 binding; 10 mM Tris-HCl (pH not stated), 150 mM KCl, 1 mM DTT, 50 ng/ml poly(dI-dC), 2.5% glycerol, 0.05% NP-40, 0.5 ug/ml BSA; recombinant protein; residues 1-168; protein details: N-terminal GST (pGEX-6P-1, printed pEGX-6P-1); label: 5' biotin
T1 sequence (looked up): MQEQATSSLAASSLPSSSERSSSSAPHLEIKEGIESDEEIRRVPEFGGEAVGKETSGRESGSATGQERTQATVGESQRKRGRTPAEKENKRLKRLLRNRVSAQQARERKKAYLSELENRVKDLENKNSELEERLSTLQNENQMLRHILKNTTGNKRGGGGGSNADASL

“GATTCCGAACTTCCATTGGGAGTGCACGTGGACTATTCACTGCATAAGG (double strand) [ABI5 promoter probe]”: no binding (GST); binds more weakly [1].
